Read-outs that look alike come from different tables or passages of the source. No constants are given. Whether binding was seen depends on the method and setting. Some results given as binding are weak or reduced against the parent protein; the word gives no strength. Blank lines part the entries; values can stand above or below the molecule they belong to.
Legend:
Test in all cases: two-hybrid; HIS3 reporter; yeast strain HFY7c cotransformed with pGAD424 (GAL4-AD) and pGBT9 (GAL4-BD) fusions; spotted on -Leu-Trp-His plates without and with 3-AT, 30 °C, 3 to 4 days
[1] = target: T1, AtoC (Escherichia coli K-12) (UniProt Q06065)
T1 sequence: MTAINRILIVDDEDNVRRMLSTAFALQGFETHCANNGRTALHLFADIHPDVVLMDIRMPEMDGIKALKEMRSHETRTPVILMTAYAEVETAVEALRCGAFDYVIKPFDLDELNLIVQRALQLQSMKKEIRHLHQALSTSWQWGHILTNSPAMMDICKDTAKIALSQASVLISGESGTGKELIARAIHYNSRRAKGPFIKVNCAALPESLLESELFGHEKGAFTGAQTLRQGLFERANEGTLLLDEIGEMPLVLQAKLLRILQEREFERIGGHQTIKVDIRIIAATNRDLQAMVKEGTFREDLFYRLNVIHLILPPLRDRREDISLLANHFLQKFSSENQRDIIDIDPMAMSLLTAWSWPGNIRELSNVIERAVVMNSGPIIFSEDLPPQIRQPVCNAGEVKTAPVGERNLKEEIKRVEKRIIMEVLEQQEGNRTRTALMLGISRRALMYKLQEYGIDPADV

Protein sequences, listed by entry. Tags and fused reporters are not part of them.
UniProt P0AEM6: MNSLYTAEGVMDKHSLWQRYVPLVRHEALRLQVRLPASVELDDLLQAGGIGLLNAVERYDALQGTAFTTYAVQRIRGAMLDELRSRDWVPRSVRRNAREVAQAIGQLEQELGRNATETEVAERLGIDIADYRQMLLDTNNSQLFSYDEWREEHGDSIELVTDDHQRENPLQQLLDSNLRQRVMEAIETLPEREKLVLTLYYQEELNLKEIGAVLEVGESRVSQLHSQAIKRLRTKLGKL
UniProt P04949: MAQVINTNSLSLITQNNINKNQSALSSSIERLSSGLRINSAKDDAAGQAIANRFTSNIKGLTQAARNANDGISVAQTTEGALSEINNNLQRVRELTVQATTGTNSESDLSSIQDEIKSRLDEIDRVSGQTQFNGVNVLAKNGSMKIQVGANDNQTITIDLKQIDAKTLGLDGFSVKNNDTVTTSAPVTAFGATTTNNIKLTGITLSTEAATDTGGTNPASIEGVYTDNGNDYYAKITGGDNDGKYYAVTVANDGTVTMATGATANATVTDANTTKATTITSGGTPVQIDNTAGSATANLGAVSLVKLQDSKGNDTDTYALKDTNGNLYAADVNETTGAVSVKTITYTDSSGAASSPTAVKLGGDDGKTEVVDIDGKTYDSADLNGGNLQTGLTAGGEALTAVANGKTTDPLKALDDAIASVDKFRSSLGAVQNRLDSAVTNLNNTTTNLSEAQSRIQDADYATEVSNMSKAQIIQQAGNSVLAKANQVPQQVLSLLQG
UniProt P0AEZ3: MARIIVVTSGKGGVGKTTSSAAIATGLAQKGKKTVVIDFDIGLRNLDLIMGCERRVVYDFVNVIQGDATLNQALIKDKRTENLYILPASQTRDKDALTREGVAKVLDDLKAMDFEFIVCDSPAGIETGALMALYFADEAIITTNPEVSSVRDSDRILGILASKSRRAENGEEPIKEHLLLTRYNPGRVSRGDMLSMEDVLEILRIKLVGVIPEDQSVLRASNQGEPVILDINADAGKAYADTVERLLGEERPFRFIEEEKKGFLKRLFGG

[2] = target: T2, AtoS (Escherichia coli K-12) (UniProt Q06067)
T2 sequence: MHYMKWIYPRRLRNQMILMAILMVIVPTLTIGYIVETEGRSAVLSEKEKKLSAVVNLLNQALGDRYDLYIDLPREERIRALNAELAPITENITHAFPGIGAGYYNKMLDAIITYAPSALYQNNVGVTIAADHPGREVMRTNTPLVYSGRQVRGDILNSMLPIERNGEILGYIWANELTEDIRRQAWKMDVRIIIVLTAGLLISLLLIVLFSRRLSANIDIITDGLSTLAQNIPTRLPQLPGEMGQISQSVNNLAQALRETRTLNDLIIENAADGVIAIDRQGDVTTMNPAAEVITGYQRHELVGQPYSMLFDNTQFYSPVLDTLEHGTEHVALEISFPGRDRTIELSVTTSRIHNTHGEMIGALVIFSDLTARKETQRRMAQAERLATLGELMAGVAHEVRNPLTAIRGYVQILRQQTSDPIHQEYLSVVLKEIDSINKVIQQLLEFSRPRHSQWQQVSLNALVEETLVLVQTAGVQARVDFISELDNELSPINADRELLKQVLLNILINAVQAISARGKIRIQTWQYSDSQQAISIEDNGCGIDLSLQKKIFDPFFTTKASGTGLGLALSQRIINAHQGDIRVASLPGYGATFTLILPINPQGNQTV

FlhC (Escherichia coli) [3] = target: T3, FlhC (Escherichia coli) (UniProt P0ABY7)
T3 sequence: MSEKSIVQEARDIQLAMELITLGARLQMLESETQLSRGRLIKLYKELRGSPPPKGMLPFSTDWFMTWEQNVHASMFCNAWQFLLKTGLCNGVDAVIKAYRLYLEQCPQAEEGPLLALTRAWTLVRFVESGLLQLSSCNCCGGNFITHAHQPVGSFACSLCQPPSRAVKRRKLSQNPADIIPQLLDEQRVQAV

FlhD (Escherichia coli) [4] = target: T4, FlhD (Escherichia coli) (UniProt P0A8S9)
T4 sequence: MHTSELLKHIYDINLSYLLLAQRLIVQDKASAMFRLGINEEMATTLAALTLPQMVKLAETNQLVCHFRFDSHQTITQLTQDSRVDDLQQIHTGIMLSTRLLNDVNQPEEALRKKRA

FliA (Escherichia coli) [5] = target: FliA (Escherichia coli) (UniProt P0AEM6)
FliC (Escherichia coli) [6] = target: FliC (Escherichia coli) (UniProt P04949)
FlhC (Escherichia coli) [7] = target: T3, FlhC (Escherichia coli); remark: listed apart in the source
FlhD (Escherichia coli) [8] = target: T4, FlhD (Escherichia coli); remark: listed apart in the source
[9] = target: T1, AtoC (Escherichia coli K-12); remark: listed apart in the source
[10] = target: T2, AtoS (Escherichia coli K-12); remark: listed apart in the source
FliA (Escherichia coli) [11] = target: FliA (Escherichia coli) (UniProt P0AEM6); remark: listed apart in the source
FliC (Escherichia coli) [12] = target: FliC (Escherichia coli) (UniProt P04949); remark: listed apart in the source

binding [1]: no binding
binding [2]: binds
binding (FlhC (Escherichia coli) [3]): no binding
binding (FlhD (Escherichia coli) [4]): no binding
binding (FliA (Escherichia coli) [5]): no binding
binding (FliC (Escherichia coli) [6]): no binding
Molecule: MinD (from UniProt P0AEZ3 1-270)

binding [9]: no binding
binding [10]: no binding
binding (FlhC (Escherichia coli) [7]): no binding
binding (FlhD (Escherichia coli) [8]): no binding
binding (FliA (Escherichia coli) [11]): no binding
binding (FliC (Escherichia coli) [12]): no binding
B3: MinC (protein, UniProt P18196 1-231)
chain: MSNTPIELKGSSFTLSVVHLHEAEPKVIHQALEDKIAQAPAFLKHAPVVLNVSALEDPVNWSAMHKAVSATGLRVIGVSGCKDAQLKAEIEKMGLPILTEGKEKAPRPAPTPQAPAQNTTPVTKTRLIDTPVRSGQRIYAPQCDLIVTSHVSAGAELIADGNIHVYGMMRGRALAGASGDRETQIFCTNLMAELVSIAGEYWLSDQIPAEFYGKAARLQLVENALTVQPLN

More lines, now with the values behind:

Molecule: MinE (from UniProt P0A734 1-88)
binding [1]: no binding
binding [2]: no binding
binding (FlhC (Escherichia coli) [3]): no binding
binding (FlhD (Escherichia coli) [4]): no binding
binding (FliA (Escherichia coli) [5]): no binding
binding (FliC (Escherichia coli) [6]): no binding

B1: AtoS (protein, UniProt Q06067 1-608)
chain: T2 sequence
binding (FlhC (Escherichia coli) [7]): no binding
binding (FlhD (Escherichia coli) [8]): no binding

B2: AtoC (protein, UniProt Q06065 1-461)
chain: T1 sequence
binding (FlhC (Escherichia coli) [7]): no binding
binding (FlhD (Escherichia coli) [8]): no binding

Reference: paper PMC10963238, “The bacterial division protein MinDE has an independent function in flagellation” (The Journal of Biological Chemistry, 2024)
